US6730293B1, “Compositions and methods for treating inflammatory diseases of the skin” (CellGate, Inc., priority 1999, dated 2004)
At least one compound was matched to its structure with a doubt left.

Assays:
[1] = test system: IL-2 secretion by the human T cell line, Jurkat; assay: Inhibition of IL-2 secretion by Jurkat cells stimulated with PMA and ionomycin; assay type: cell-based
[2] = test system: ear inflammation in murine contact dermatitis; assay: Murine contact dermatitis (DNFB) ear inflammation; assay type: in vivo, Balb/c mice; details: for reduction in ear inflammation: measured at 24 hours

For `C/C=C/C[C@@H](C)[C@@H](OC(=O)CN(Cc1ccccc1)C(=O)CNCC(=O)N[C@@H](CCCNC(=N)N)C(=O)N[C@@H](CCCNC(=N)N)C(=O)N[C@@H](CCCNC(=N)N)C(=O)N[C@@H](CCCNC(=N)N)C(=O)N[C@@H](CCCNC(=N)N)C(=O)N[C@@H](CCCNC(=N)N)C(=O)N[C@@H](CCCNC(=N)N)C(N)=O)[C@H]1C(=O)N[C@@H](CC)C(=O)N(C)CC(=O)N(C)[C@@H](CC(C)C)C(=O)N[C@@H](C(C)C)C(=O)N(C)[C@@H](CC(C)C)C(=O)N[C@@H](C)C(=O)N[C@H](C)C(=O)N(C)[C@@H](CC(C)C)C(=O)N(C)[C@@H](CC(C)C)C(=O)N(C)[C@@H](C(C)C)C(=O)N1C` [releasable R7 CsA conjugate], the “EC50 relative to CsA” value ([1]; CsA dissolved in alcohol and added at the same time) was “approximately two fold higher than CsA”, the “inhibition of IL-2 secretion” value ([1]; Jurkat, conjugate added 12 hours prior to PMA/ionomycin) was “dose dependent inhibition” and the “reduction in ear inflammation” value ([2]; 0.1% topical) was 64.8% ±4.0. For the same compound, the “reduction in inflammation in the untreated ear” value ([2]; 1% conjugate on the other ear (local vs systemic effect)) was “No reduction in inflammation” and the “reduction in ear inflammation” value ([2]; 1% topical, treated 1, 5, 20 h after restimulation) was 73.9% ±4.0.
